Assay results as given in the supplement of paper PMC12067093, “Discovery and optimisation of a covalent ligand for TRIM25 and its application to targeted protein ubiquitination” (Chemical Science, 2025).
The list shows a part of the results.
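Note: competitive chemoproteomic profiling in live THP-1 cells with an iodoacetamide desthiobiotin (IA-DTB) probe, comparing probe-labelled peptide intensities in compound-treated cells against DMSO-treated controls.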

The targets below were run with CC1Cc2ccccc2N1C(=O)C1CCCN(C1)C(=O)CCl (mixture of isomers) [TRIM25 ligand 11 (diastereomer mixture)] (assay: probe-labelled cysteine peptide fold change vs DMSO (competition) (log2 fold change); higher = less target engagement (more negative = stronger competition)). Settings: 10 µM; THP-1; incubation time: 4 h.
For “ILF3_Q12906_278_RVLECLASGIVMPDGSGIYDPCEK (UniProt Q12906)”, the “probe-labelled cysteine peptide fold change” value was -0.186.
With “IFT27_Q9BW83_166_EMENFEAPFHCLAK (UniProt Q9BW83)” the “probe-labelled cysteine peptide fold change” value was -0.155.
For “ILKAP_Q9H0C8_312_CQLTPNDR (UniProt Q9H0C8)”, the “probe-labelled cysteine peptide fold change” value was 0.0904.
For “HUS1_O60921_12_IVDGACLNHFTR (UniProt O60921)”, the “probe-labelled cysteine peptide fold change” value was -0.14.
“IARS2_Q9NSE4_819_RSCQTALVEILDVIVR (UniProt Q9NSE4)” was tested, and the “probe-labelled cysteine peptide fold change” value was 0.00877.
With “IDH1_O75874_379_DLAACIK (UniProt O75874)” the “probe-labelled cysteine peptide fold change” value was -0.0207.
With “IDH2_P48735_418_DLAGCIHGLSNVK (UniProt P48735)” the “probe-labelled cysteine peptide fold change” value was 0.0586.
For “IL1RAP_Q9NPH3_47_CPLFEHFLK (UniProt Q9NPH3)”, the “probe-labelled cysteine peptide fold change” value was 0.135.

Same assay, conditions: 50 µM; THP-1; incubation time: 4 h
In the case of “HUWE1_Q7Z6Z7_29_VCNDEQLLLELQQIK (UniProt Q7Z6Z7)”, the “probe-labelled cysteine peptide fold change” value is reported as 0.0122.
In the case of “IGF2R_P11717_1598_DGSPCPSK (UniProt P11717)”, the “probe-labelled cysteine peptide fold change” value is reported as 0.0576.
In the case of “INPP5B_P32019_475_FQFHNTSICVVNSHLAAHIEEYER (UniProt P32019)”, the “probe-labelled cysteine peptide fold change” value is reported as 0.191.
“IL18_Q14116_74_NLNDQVLFIDQGNRPLFEDMTDSDCRDNAPR (UniProt Q14116)” was tested, and the “probe-labelled cysteine peptide fold change” value was -0.0834.
For “IDH3A_P50213_222_EVAESCK (UniProt P50213)”, the “probe-labelled cysteine peptide fold change” value was 0.129.
With “ICAM3_P32942_407_ATCPQHLK (UniProt P32942)” the “probe-labelled cysteine peptide fold change” value was 0.0837.
In the case of “ING2_Q9H160_124_QMELHSQCFQDPAESER (UniProt Q9H160)”, the “probe-labelled cysteine peptide fold change” value is reported as -0.129.
For “ICAM3_P32942_423_HVLQCQAR (UniProt P32942)”, the “probe-labelled cysteine peptide fold change” value was 0.0916.
In the case of “IKZF1_Q13422_254_EETNHSEMAEDLCK (UniProt Q13422)”, the “probe-labelled cysteine peptide fold change” value is reported as -0.0678.
With “IARS_P41252_185_VMPFSTACNTPLSNFESHQNYK (UniProt P41252)” the “probe-labelled cysteine peptide fold change” value was -0.0105.
In the case of “HUWE1_Q7Z6Z7_1278_MAESMLAILCHILR (UniProt Q7Z6Z7)”, the “probe-labelled cysteine peptide fold change” value is reported as 0.235.
With “HUWE1_Q7Z6Z7_2721_DQSAQCTASK (UniProt Q7Z6Z7)” the “probe-labelled cysteine peptide fold change” value was -0.165.
“IFT140_Q96RY7_155_HLTHCIFR (UniProt Q96RY7)” was tested, and the “probe-labelled cysteine peptide fold change” value was 0.13.
In the case of “ING2_Q9H160_26_LLTCYVQDYLECVESLPHDMQR (UniProt Q9H160)”, the “probe-labelled cysteine peptide fold change” value is reported as -0.164.
With “IKBKG_Q9Y6K9_54_CLEENQELRDAIR (UniProt Q9Y6K9)” the “probe-labelled cysteine peptide fold change” value was -0.272.
In the case of “IMPA2_O14732_90_CVLTHSPTWIIDPIDGTCNFVHR (UniProt O14732)”, the “probe-labelled cysteine peptide fold change” value is reported as 0.0794.
For “ILKAP_Q9H0C8_221_DGSTATCVLAVDNILYIANLGDSR (UniProt Q9H0C8)”, the “probe-labelled cysteine peptide fold change” value was 0.0411.
In the case of “HYAL3_O43820_361_CHGHGR (UniProt O43820)”, the “probe-labelled cysteine peptide fold change” value is reported as 0.112.
“HTT_P42858_2792_VGALHGVLYVLECDLLDDTAK (UniProt P42858)” was tested, and the “probe-labelled cysteine peptide fold change” value was -0.088.
With “HUWE1_Q7Z6Z7_19_TPTEAPADCR (UniProt Q7Z6Z7)” the “probe-labelled cysteine peptide fold change” value was -0.167.
In the case of “IGF2R_P11717_814_YYINVCRPLNPVPGCNR (UniProt P11717)”, the “probe-labelled cysteine peptide fold change” value is reported as 0.0709.
With “IL17RA_Q96F46_469_CDHGKPVGDLFTAAMNMILPDFK (UniProt Q96F46)” the “probe-labelled cysteine peptide fold change” value was 0.431.
For “ILVBL_A1L0T0_173_GALQAVDQLSLFRPLCK (UniProt A1L0T0)”, the “probe-labelled cysteine peptide fold change” value was -0.0788.
For “HUWE1_Q7Z6Z7_1401_AESPEEVACR (UniProt Q7Z6Z7)”, the “probe-labelled cysteine peptide fold change” value was 0.0153.
For “IGF2R_P11717_731_ATLITFLCDR (UniProt P11717)”, the “probe-labelled cysteine peptide fold change” value was 0.416.
With “IGF2R_P11717_420_YSDGDLTLIYFGGDECSSGFQR (UniProt P11717)” the “probe-labelled cysteine peptide fold change” value was -0.246.
With “IMPA1_P29218_8_ADPWQECMDYAVTLAR (UniProt P29218)” the “probe-labelled cysteine peptide fold change” value was -0.242.
For “HUWE1_Q7Z6Z7_2721_ENRDQSAQCTASK (UniProt Q7Z6Z7)”, the “probe-labelled cysteine peptide fold change” value was -0.527.
With “IDH3A_P50213_351_CSDFTEEICR (UniProt P50213)” the “probe-labelled cysteine peptide fold change” value was -0.107.
For “HUWE1_Q7Z6Z7_2106_EDCSVLAFVLDHLLPHTQNAEDKDTPALAR (UniProt Q7Z6Z7)”, the “probe-labelled cysteine peptide fold change” value was 0.151.
“IGF2R_P11717_1270_LSSDVCPTSDK (UniProt P11717)” was tested, and the “probe-labelled cysteine peptide fold change” value was -0.108.
“IFT27_Q9BW83_149_AWALGQGLECFETSVK (UniProt Q9BW83)” was tested, and the “probe-labelled cysteine peptide fold change” value was 0.0476.
“ILF3_Q12906_278_RVLECLASGIVMPDGSGIYDPCEK (UniProt Q12906)” was tested, and the “probe-labelled cysteine peptide fold change” value was 0.0157.
For “IFT27_Q9BW83_166_EMENFEAPFHCLAK (UniProt Q9BW83)”, the “probe-labelled cysteine peptide fold change” value was -0.189.
“ILKAP_Q9H0C8_312_CQLTPNDR (UniProt Q9H0C8)” was tested, and the “probe-labelled cysteine peptide fold change” value was 0.104.
“HUS1_O60921_12_IVDGACLNHFTR (UniProt O60921)” was tested, and the “probe-labelled cysteine peptide fold change” value was 0.00282.
“IARS2_Q9NSE4_819_RSCQTALVEILDVIVR (UniProt Q9NSE4)” was tested, and the “probe-labelled cysteine peptide fold change” value was -0.0616.
For “IDH1_O75874_379_DLAACIK (UniProt O75874)”, the “probe-labelled cysteine peptide fold change” value was -0.0598.
In the case of “IDH2_P48735_418_DLAGCIHGLSNVK (UniProt P48735)”, the “probe-labelled cysteine peptide fold change” value is reported as 0.00231.
In the case of “IL1RAP_Q9NPH3_47_CPLFEHFLK (UniProt Q9NPH3)”, the “probe-labelled cysteine peptide fold change” value is reported as 0.196.
